# Source: PubChem BioAssay AID504834 (National Center for Advancing Translational Sciences (NCATS), 2011)
# Several values for one entry are separate records, joined by “and”; a condition that tells them apart may be missing. Equal entries are not always repeated. In all, about 320,000 compounds went through this assay and about 22,000 (6.9%) were called active. The inconclusive results got no clear call from the source; some entries with a clear call stand among them for comparison. The call rests on the fitted dose curve; in most records, active means well fitted inhibition curve with a large enough effect; inconclusive means small, poorly fitted or top-dose-only effect, or another doubt; inactive means no such curve, though single readings can be large or run the other way. Potencies of inconclusive entries are doubtful fits and often do not repeat.
# Assay: Primary qHTS for delayed death inhibitors of the malarial parasite plastid, 96 hour incubation
# Settings: P. falciparum luciferase reporter growth; series mostly up to 28.7 µM
# Outline: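 Plates of compound plus infected erythrocytes (2% hematocrit, 0.05% parasitemia final) incubate 96 hours, 37 C, 5% CO2. Detection reagent added; reduced luminescence from the parasites' luciferase reporter flags inhibition.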
# Potency means the concentration at half of the fitted maximal effect.
row,Structure (SMILES),Potency
1,COc1ccc(C(CNC(=O)Cn2[nH]c(=O)c3ccccc3c2=O)N2CCCC2)cc1 (stereo not drawn),"inconclusive: 18.5 µM [inhibitor, single point]"
2,Cc1ccc(C(=O)N2CCN(c3ccccc3)CC2)cc1S(=O)(=O)N1CCCC1,inactive
3,Cc1ccc(C(=O)Nc2ccc(C(=O)N3CCCCC3)cc2)o1,inactive
4,CCCN(CC(=O)Nc1cccc(S(N)(=O)=O)c1)CC(=O)Nc1ccc(F)c(F)c1F,inactive
5,Nc1cc(Cl)ccc1C(=O)OCC(=O)N1CCCC1,inactive
6,COC(=O)c1c(-c2ccccc2OC)sc2ccccc12,"inconclusive: 11.7 µM [inhibitor, single point]"
7,O=C(Oc1cccc(-n2cnnn2)c1)C1CCCCC1,"inconclusive: 0.104 µM [inhibitor, full curve, poor fit]"
8,O=C(N/N=C/c1cn(-c2ccccc2)nc1-c1cc2ccccc2o1)c1c[nH]c2ccccc12,"inconclusive: 1.65 µM [inhibitor, full curve, poor fit]"
9,Cc1ccc(-c2cc(C(F)F)nc(N3CCOCC3)n2)cc1,"inconclusive: 4.15 µM [inhibitor, single point]"
10,CC(C)(C)c1ccccc1NC(=O)c1c(O)c2cccc3c2n(c1=O)CC3,inactive
11,CCOC(=O)NC(=O)/C(C#N)=N\Nc1cccc(Cl)c1,"inconclusive: 1.65 µM [inhibitor, full curve, poor fit]"
12,O=C(CSc1cccc[n+]1[O-])c1cccs1,"inconclusive: 18.5 µM [inhibitor, single point]"
13,O=C(NCc1ccccc1)/C(=C/c1cccc([N+](=O)[O-])c1)NC(=O)c1ccco1,"inconclusive: 11.7 µM [inhibitor, partial curve, poor fit]"
14,C=CCNC(=S)NCCO,"inconclusive: 0.0738 µM [inhibitor, full curve, poor fit]"
15,CCOC(=O)C1CCCN(C2=NC(=O)/C(=C/c3ccc(OC)c(OC)c3)S2)C1 (stereo not drawn),"inconclusive: 7.38 µM [inhibitor, partial curve]"
16,Cc1ccc(-c2nnc(SCC(=O)N/N=C/c3ccc(C)s3)n2-c2ccccc2)cc1,inactive
17,CC(=O)c1cn(-c2ccc(Cl)cc2)c(=O)[nH]c1=O,"inconclusive: 0.0738 µM [inhibitor, full curve, poor fit]"
18,Cc1ccc(SCC(=O)Nc2ccc(N3CCOCC3)cc2)c(C)c1,"inconclusive: 0.0522 µM [inhibitor, full curve]"
19,CCCCn1cnc2c(cnn2-c2ccc(Cl)cc2)c1=O,inactive
20,COC(=O)c1cc(NC(=O)Cc2ccccc2[N+](=O)[O-])ccc1Cl,"inconclusive: 18.5 µM [inhibitor, single point]"
21,FC(F)(F)c1nc(-c2ccccc2)ncc1-c1nnnn1-c1ccccc1,"inconclusive: 18.5 µM [inhibitor, single point]"
22,CC1(C(=O)NC2CCCCC2)CCC(=O)N1Cc1cccs1 (stereo not drawn),"inconclusive: 23.3 µM [inhibitor, partial curve, poor fit]"

row,Structure (SMILES),Potency
1,CC(Oc1ccc2c(-c3ccccc3)cc(=O)oc2c1)C(=O)O (stereo not drawn),inactive
2,C=CCNC(=S)N1CCN(Cc2ccc3c(c2)OCO3)CC1,"inconclusive: 14.7 µM [inhibitor, single point]"
3,Cc1cccc(NC(=O)CCNC(=O)c2ccc(Br)cc2)c1C,inactive
4,CC1(OC(=O)CCc2ccccc2)C(=O)C=C2C=C(c3ccc(C#N)cc3)N(C3CC3)C=C2C1=O (stereo not drawn),"inconclusive: 18.5 µM [inhibitor, single point]"
5,O=C(NCCN1C(=O)S/C(=C\c2ccc(F)cc2)C1=O)C1CCN(S(=O)(=O)c2cccs2)CC1,inactive
6,Clc1ccc(CN2CCc3c([nH]c4ccccc34)C2)cc1Cl,"inconclusive: 18.5 µM [inhibitor, single point]"
7,O=c1cc(O)c(-c2ccccc2Cl)c(Cl)[nH]1,"inconclusive: 18.5 µM [inhibitor, single point]"
8,CN(C(=O)CCn1c(=S)oc2ccccc21)c1ccc(F)cc1,"inconclusive: 9.28 µM [inhibitor, partial curve, poor fit]"
9,Cc1c(N(C(=O)c2ccccn2)C2(C(=O)NC3CCCCC3)CCCCC2)c(=O)n(-c2ccccc2)n1C,"inconclusive: 11.7 µM [inhibitor, single point]"
10,CCCC(c1nnnn1CC(=O)OCC)N(Cc1cc2ccc(C)cc2[nH]c1=O)C1CCCC1 (stereo not drawn),"inconclusive: 0.738 µM [inhibitor, full curve, poor fit]"
11,O=C(Cc1ccc(Cl)cc1)Nc1ccc(CN2CCCCC2)cc1,active: 11.7 µM
12,Cc1c(O)cccc1C(=O)N[C@@H](CSc1ccccc1)[C@H](O)CN1C[C@H]2CCCC[C@H]2C[C@H]1C(=O)NC(C)(C)C,"inconclusive: 15.1 µM [inhibitor, partial curve, poor fit] and inconclusive: 3.29 µM [inhibitor, single point]"
13,O=P(Nc1c(Cl)cccc1Cl)(c1ccccc1)c1nc2c(s1)CCCC2 (stereo not drawn),inactive
14,N/C(=N\OC(=O)CSc1ccccc1)c1ccccn1,"inconclusive: 11.7 µM [inhibitor, partial curve, poor fit]"
15,COc1ccc(/C=C2\SC(=S)N(N3C(=O)CCC3=O)C2=O)cc1O,"inconclusive: 4.15 µM [inhibitor, partial curve, poor fit]"
16,O=C(COc1coc(CN2CCc3ccccc32)cc1=O)N1CCCCC1,"inconclusive: 18.5 µM [inhibitor, single point]"
17,CCOC(=O)c1cc(-c2cc(OC)c(OC)c(OC)c2)nc2c1c(=O)[nH]c(=O)n2Cc1ccccc1,"inconclusive: 6.57 µM [inhibitor, partial curve]"
18,COC(=O)c1c(-c2c(Cl)cccc2Cl)noc1NC(=O)N(C)C,inactive
19,COc1cc(=O)n2c(-c3ccccc3)csc2n1,inactive
20,CC(C)C[C@H](NC(=O)N1CCn2c1nc1ccccc12)C(=O)NC1CCCCC1,inactive
21,COCc1cc(=O)n2[nH]c(C)c(-c3ccccc3)c2n1,"inconclusive: 11.7 µM [inhibitor, single point]"

# Reprinted at random: three compounds from above, in no set order.
row,Structure (SMILES),Potency
2,C=CCNC(=S)N1CCN(Cc2ccc3c(c2)OCO3)CC1,"inconclusive: 14.7 µM [inhibitor, single point]"
3,Cc1cccc(NC(=O)CCNC(=O)c2ccc(Br)cc2)c1C,inactive
16,O=C(COc1coc(CN2CCc3ccccc32)cc1=O)N1CCCCC1,"inconclusive: 18.5 µM [inhibitor, single point]"
